# Data source: PubChem BioAssay AID602196 (INSERM, 2012)
# Screen: 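Genes whose knock-down alters cisplatin killing of lung cancer cells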
# System: human A549 lung cancer cells
# Reagent: siRNA pair against human genes
# Duration: 48 h transfection before cisplatin; time from cisplatin to read-out not stated
# Treatment: cisplatin at a dose killing half of control-siRNA cells; exact dose and duration not given
# Measured: 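Cisplatin cell death as a shift from the 50% death seen with control siRNA; siRNAs toxic or growth-blocking alone scored 0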
# Direction: two-siRNA summed score (-2 to +2): higher = both siRNAs protect from cisplatin killing; -2 means both sensitise; mean protection from cisplatin (shift in death): higher = protection from cisplatin killing
# Rule for the call: 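siRNAs harmful alone (LDH or WST-1) get 0; others get +1 for less and -1 for more cisplatin killing; genes are active when the two siRNAs give the same sign, summing to ±2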
# Calls: active = both siRNAs shift cisplatin killing the same way; inactive = no consistent shift, or siRNA harmful alone
# In all, the deposit lists about 23,000 reagents; this is a random part of them. Of all reagents, 455 (2%) are marked active. 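Active includes both protection and sensitisation; some change values fall well beyond the stated -50 to +50 range.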 Further read-outs or replicates are left out here. Not stated in the record: the amount of reagent.
two-siRNA summed score (-2 to +2),mean protection from cisplatin (shift in death) (%),outcome,Gene
0,9.5,inactive,LOC442704
0,13.8,inactive,DUS3L
1,13.4,inactive,CPEB3
0,-1.8,inactive,SSX2IP
0,-19.6,inactive,HR
0,13.7,inactive,HDDC3
0,3.2,inactive,FLJ10246
-1,-6,inactive,CACNG1
0,16.7,inactive,ITIH5
0,5.1,inactive,LZTS3
0,3.9,inactive,HBB
0,-0.4,inactive,LOC441619
-1,-18,inactive,CALHM2
1,14.4,inactive,C17orf75
-1,-6.1,inactive,LOC389105
0,-17.4,inactive,POSTN
0,11,inactive,NODAL
-1,-13.2,inactive,TMEM147
-1,-12.5,inactive,SLC16A5
0,0.2,inactive,WWC3
1,10.3,inactive,PCGF3
0,-4.3,inactive,LOC441141
-1,-0.2,inactive,HDAC2
-1,-7.3,inactive,ATG2B
1,9,inactive,LHFPL6
0,6,inactive,FGD2
0,9.9,inactive,LOC338809
1,8.2,inactive,LRRC10
0,9.8,inactive,TMPRSS11D
1,3.4,inactive,ETV3
1,23.7,inactive,TMEM131
0,5.9,inactive,LOC401344
1,-2,inactive,OR7G1
0,6,inactive,ADAM15
-1,-0.6,inactive,EXD2
1,10.9,inactive,LOC389101
1,13.7,inactive,ZFYVE9
0,7.7,inactive,OR14A16
0,7.7,inactive,DR1

A run of entries from the list above, for reference:
two-siRNA summed score (-2 to +2),mean protection from cisplatin (shift in death) (%),outcome,Gene
0,9.9,inactive,LOC338809
1,8.2,inactive,LRRC10
